The text below walks through data of publication doi:10.1101/2023.03.08.531793.

Chains of the proteins cited; added tags and fusions are not shown.
UniProt Q8LDC8: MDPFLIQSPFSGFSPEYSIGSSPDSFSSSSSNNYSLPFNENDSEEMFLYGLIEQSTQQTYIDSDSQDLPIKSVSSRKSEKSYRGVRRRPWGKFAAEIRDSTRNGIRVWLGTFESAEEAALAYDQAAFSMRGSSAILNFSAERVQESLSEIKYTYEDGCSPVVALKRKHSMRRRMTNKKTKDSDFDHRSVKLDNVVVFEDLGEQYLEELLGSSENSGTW

No constants are given. Whether binding was seen depends on the method and setting. In cells and extracts the contact can be indirect. Some results given as binding are weak or reduced against the parent protein; the word gives no strength. Sequences can lack the tags named with a protein.

Test [1] concerns the target HA-ERF1 (Arabidopsis thaliana) (UniProt Q8LDC8). Nature of the test: co-IP.
Test [2] concerns the target nYFP-ERF1 (the N-terminal part of YFP fused with ERF1) (Arabidopsis thaliana) (UniProt Q8LDC8). Description: split reporter.

B1: Flag-ABI3 (protein, UniProt Q01593 1-720)
chain: MKSLHVAANAGDLAEDCGILGGDADDTVLMDGIDEVGREIWLDDHGGDNNHVHGHQDDDLIVHHDPSIFYGDLPTLPDFPCMSSSSSSSTSPAPVNAIVSSASSSSAASSSTSSAASWAILRSDGEDPTPNQNQYASGNCDDSSGALQSTASMEIPLDSSQGFGCGEGGGDCIDMMETFGYMDLLDSNEFFDTSAIFSQDDDTQNPNLMDQTLERQEDQVVVPMMENNSGGDMQMMNSSLEQDDDLAAVFLEWLKNNKETVSAEDLRKVKIKKATIESAARRLGGGKEAMKQLLKLILEWVQTNHLQRRRTTTTTTNLSYQQSFQQDPFQNPNPNNNNLIPPSDQTCFSPSTWVPPPPQQQAFVSDPGFGYMPAPNYPPQPEFLPLLESPPSWPPPPQSGPMPHQQFPMPPTSQYNQFGDPTGFNGYNMNPYQYPYVPAGQMRDQRLLRLCSSATKEARKKRMARQRRFLSHHHRHNNNNNNNNNNQQNQTQIGETCAAVAPQLNPVATTATGGTWMYWPNVPAVPPQLPPVMETQLPTMDRAGSASAMPRQQVVPDRRQGWKPEKNLRFLLQKVLKQSDVGNLGRIVLPKKEAETHLPELEARDGISLAMEDIGTSRVWNMRYRFWPNNKSRMYLLENTGDFVKTNGLQEGDFIVIYSDVKCGKYLIRGVKVRQPSGQKPEAPPSSAATKRQNKSQRNINNNSPSANVVVASPTSQTVK
Regarding B1, in test [1], the binding entry is listed as “binds”.

B2: cYFP-ABI3 (the C-terminal part of YFP fused with ABI3) (protein, UniProt Q01593 1-720)
chain: B1 chain
For B2, the binding result in test [2] was “binds”.
